{"source": "PubChem BioAssay AID1259425 (University of Nebraska Medical Center, 2018)", "assay": "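Find knockdowns that reproduce the gene expression pattern seen when KSR1 is lost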 (primary screen)", "cells": "HCT116 human colon cancer cells", "reagent": "siRNA pool against human genes, 50 nM siRNA", "measured": "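After 50 nM siRNA pool, branched-DNA assay measures six marker transcripts per well, minus blank, normalised to the geometric mean of two housekeeping transcripts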", "scale": "BNIP3L mRNA: higher = more BNIP3L transcript after knockdown", "note": "Here is one part, drawn at random, of about 14,000 reagents. Further read-outs or replicates are left out here. The record does not give: the time to read-out."}
{"gene symbol":"EMC4","PubChem SID":"SID364000117","BNIP3L mRNA, set 1":0.141}
{"gene symbol":"PHTF1","PubChem SID":"SID363997398","BNIP3L mRNA, set 1":0.0525}
{"gene symbol":"DPH2","PubChem SID":"SID363992655","BNIP3L mRNA, set 1":0.14}
{"gene symbol":"PRAG1","PubChem SID":"SID364005382","BNIP3L mRNA, set 1":0.0548}
{"gene symbol":"DOCK5","PubChem SID":"SID364003173","BNIP3L mRNA, set 1":0.0996}
{"gene symbol":"OR1D2","PubChem SID":"SID363993719","BNIP3L mRNA, set 1":0.113}
{"gene symbol":"WDR55","PubChem SID":"SID364000458","BNIP3L mRNA, set 1":0.12}
{"gene symbol":"CER1","PubChem SID":"SID363996360","BNIP3L mRNA, set 1":0.109}
{"gene symbol":"OAT","PubChem SID":"SID363991607","BNIP3L mRNA, set 1":0.116}
{"gene symbol":"SLTM","PubChem SID":"SID364003030","BNIP3L mRNA, set 1":0.118}
{"gene symbol":"GOPC","PubChem SID":"SID364001663","BNIP3L mRNA, set 1":0.0838}
{"gene symbol":"GOLGA2P5","PubChem SID":"SID364000387","BNIP3L mRNA, set 1":0.105}
